# Results from the supplement of paper PMC4635364.
# Counter-ions that a name gives are not always drawn. Some of the results follow. Repeats in this data set agree poorly, so a single value says little.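 Cells: ReNCell VM human fetal ventral-midbrain neural progenitors, differentiated mitogen-free. Blinded raters compared doublecortin-stained (early neurons) or tyrosine hydroxylase-stained (dopaminergic neurons) images with untreated wells, where 0 means no change. After repeats and both raters were averaged, compounds scoring 2 or above became hits for retesting.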
# Key:
# ReNCell VM [1] = test: neuronal differentiation score (DCX+ cell fraction vs untreated, manual image score) (score (-3 to 3)); higher = more neuronal differentiation; details: 2 uM, 2 weeks
# ReNCell VM [2] = test: dopaminergic neuron differentiation score (TH+ cell fraction vs untreated, manual image score) (score (0 to 3)); higher = more TH+ dopaminergic neuron differentiation; details: 2 uM, 4 weeks, BDNF 10 ng/ml + GDNF 10 ng/ml
smiles,measurement,setting,value
CC1=C(/C=C/C(C)=C/C=C/C(C)=C\C(=O)O)C(C)(C)CCC1 [Isotretinoin],neuronal differentiation score,ReNCell VM [1]; library: Prestwick,inactive: -2
same,dopaminergic neuron differentiation score,ReNCell VM [2]; library: Prestwick,inactive: 0
O=C(O)CCCCC(=O)O,neuronal differentiation score,ReNCell VM [1]; library: Spectrum,inactive: 0
same,dopaminergic neuron differentiation score,ReNCell VM [2]; library: Spectrum,inactive: 0
O=C1c2c(O)ccc(O)c2C(=O)c2c(NCCNCCO)ccc(NCCNCCO)c21,neuronal differentiation score,ReNCell VM [1]; library: Spectrum,inactive: 0
same,dopaminergic neuron differentiation score,ReNCell VM [2]; library: Spectrum,inactive: 0
O=C(O)COCCN1CCN(C(c2ccccc2)c2ccc(Cl)cc2)CC1 (stereo unspecified),neuronal differentiation score,ReNCell VM [1]; library: Spectrum,inactive: 0
same,dopaminergic neuron differentiation score,ReNCell VM [2]; library: Spectrum,inactive: 1
Nc1nc(=O)c2[nH]c(=O)cnc2[nH]1,neuronal differentiation score,ReNCell VM [1]; library: Spectrum,inactive: 0
same,dopaminergic neuron differentiation score,ReNCell VM [2]; library: Spectrum,inactive: 0
"Ic1ccc(N2CCN(Cc3c[nH]c4ncccc34)CC2)cc1 [L-750,667 trihydrochloride]",neuronal differentiation score,ReNCell VM [1]; library: LOPAC,inactive: 0
same,dopaminergic neuron differentiation score,ReNCell VM [2]; library: LOPAC,inactive: 0
OCc1ccccc1,neuronal differentiation score,ReNCell VM [1]; library: Spectrum,inactive: 0
same,dopaminergic neuron differentiation score,ReNCell VM [2]; library: Spectrum,inactive: 0
CC1(C)CCC(NC(=O)[C@@H](N)CCC(=O)O)CC1,neuronal differentiation score,ReNCell VM [1]; library: LOPAC,inactive: 0
same,dopaminergic neuron differentiation score,ReNCell VM [2]; library: LOPAC,inactive: 0
CC(C)NC[C@H](O)COc1ccc(CC(N)=O)cc1 [(S)-(-)-Atenolol],neuronal differentiation score,ReNCell VM [1]; library: Prestwick,inactive: 0
same,dopaminergic neuron differentiation score,ReNCell VM [2]; library: Prestwick,inactive: 0
CC(CN(C)C)CN1c2ccccc2Sc2ccccc21 (stereo unspecified),neuronal differentiation score,ReNCell VM [1]; library: Spectrum,inactive: 0
same,dopaminergic neuron differentiation score,ReNCell VM [2]; library: Spectrum,inactive: 0
CN(C)CCN1C(=O)c2ccccc2N(C)c2ccccc21 [Dibenzepine hydrochloride],neuronal differentiation score,ReNCell VM [1]; library: Prestwick,inactive: 0
same,dopaminergic neuron differentiation score,ReNCell VM [2]; library: Prestwick,inactive: 0
Cc1nc2ccccn2c(=O)c1CCN1CCC(C(=O)c2ccc(F)cc2)CC1,neuronal differentiation score,ReNCell VM [1]; library: Spectrum,inactive: 0
same,dopaminergic neuron differentiation score,ReNCell VM [2]; library: Spectrum,inactive: 0
CC(=O)Oc1cccc2c1C(=O)c1c(OC(C)=O)cc(C(=O)O)cc1C2=O,neuronal differentiation score,ReNCell VM [1]; library: Spectrum,inactive: 0
same,dopaminergic neuron differentiation score,ReNCell VM [2]; library: Spectrum,inactive: 0
CC(C)Cn1c(=O)n(C)c(=O)c2[nH]cnc21 [3-Isobutyl-1-methylxanthine],neuronal differentiation score,ReNCell VM [1]; library: LOPAC,inactive: 0
same,dopaminergic neuron differentiation score,ReNCell VM [2]; library: LOPAC,inactive: 0
NC1CCN(c2nc3c(cc2F)c(=O)c(C(=O)O)cn3-c2ccc(F)cc2F)C1 (stereo unspecified) [Tosufloxacin hydrochloride],neuronal differentiation score,ReNCell VM [1]; library: Prestwick,inactive: 0
same,dopaminergic neuron differentiation score,ReNCell VM [2]; library: Prestwick,inactive: 0
CCCn1c(=O)c2[nH]c(-c3ccc(OCC(=O)Nc4ccc(C#N)cc4)cc3)nc2n(CCC)c1=O,neuronal differentiation score,ReNCell VM [1]; library: LOPAC,inactive: 0
same,dopaminergic neuron differentiation score,ReNCell VM [2]; library: LOPAC,inactive: 0
CN1CCCN=C1/C=C/c1cccs1,neuronal differentiation score,ReNCell VM [1]; library: Spectrum,inactive: 0
same,dopaminergic neuron differentiation score,ReNCell VM [2]; library: Spectrum,inactive: 0
COc1cc2c(Nc3ccc(NC(=O)c4ccccc4)cc3)ncnc2cc1OCCCN1CCOCC1,neuronal differentiation score,ReNCell VM [1]; library: Tocriscreen,inactive: 0
same,dopaminergic neuron differentiation score,ReNCell VM [2]; library: Tocriscreen,inactive: 0

# Part of the list above, as tab-separated lines:
smiles	measurement	setting	value
Ic1ccc(N2CCN(Cc3c[nH]c4ncccc34)CC2)cc1 [L-750,667 trihydrochloride]	dopaminergic neuron differentiation score	ReNCell VM [2]; library: LOPAC	inactive: 0
OCc1ccccc1	neuronal differentiation score	ReNCell VM [1]; library: Spectrum	inactive: 0
